Test results published in the supplement of paper PMC3334620.
In all, about 33,000 sequences were measured (“E-score (-0.5 to 0.5)”: median about -0.016, highest 2% from about 0.3 on). Some of the results follow.

Target: T1, Yer184c (UniProt P39961)
T1 sequence: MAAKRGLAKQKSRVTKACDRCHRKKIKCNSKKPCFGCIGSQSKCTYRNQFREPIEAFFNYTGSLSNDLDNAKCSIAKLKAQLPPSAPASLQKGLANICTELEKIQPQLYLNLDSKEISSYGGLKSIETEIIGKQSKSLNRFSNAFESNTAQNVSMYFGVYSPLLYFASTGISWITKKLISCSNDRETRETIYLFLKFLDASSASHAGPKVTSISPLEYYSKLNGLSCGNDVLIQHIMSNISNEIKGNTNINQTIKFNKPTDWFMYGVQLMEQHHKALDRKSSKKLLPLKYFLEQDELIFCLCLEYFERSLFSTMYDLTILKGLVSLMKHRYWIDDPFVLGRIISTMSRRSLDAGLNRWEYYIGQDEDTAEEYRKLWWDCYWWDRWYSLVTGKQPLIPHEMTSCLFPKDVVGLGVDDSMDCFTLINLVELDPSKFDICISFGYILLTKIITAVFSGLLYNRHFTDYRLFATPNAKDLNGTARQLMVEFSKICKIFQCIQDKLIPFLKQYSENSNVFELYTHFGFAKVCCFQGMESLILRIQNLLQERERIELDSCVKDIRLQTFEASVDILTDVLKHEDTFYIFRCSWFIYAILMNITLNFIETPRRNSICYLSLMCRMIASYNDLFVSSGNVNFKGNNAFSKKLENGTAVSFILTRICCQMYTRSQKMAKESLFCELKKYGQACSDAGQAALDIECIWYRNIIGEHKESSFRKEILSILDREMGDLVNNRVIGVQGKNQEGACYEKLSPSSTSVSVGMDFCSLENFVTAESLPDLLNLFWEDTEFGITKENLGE
Experiment: PBM E-score (8-mer binding enrichment) (E-score (-0.5 to 0.5)); higher = stronger / more preferred TF binding
Details: protein concentration: 100 nM; construct: GST-full length
Outline: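 PURExpress in vitro transcription/translation supplied GST-tagged yeast transcription factors, either full-length or DNA-binding domain. Applied at about 100-200 nM to universal all-10-mer Agilent arrays double-stranded by primer extension, the bound protein was detected with fluorescent anti-GST. E-scores, modified Wilcoxon-Mann-Whitney statistics, were given by the Universal PBM Analysis Suite to ungapped eight-base words pooled with their reverse complements after masliner normalisation.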

Point of comparison: GGCTGCTA, “PBM E-score” value -0.0683. Against it:
- ATGTTCTA — lower, -0.0707
- AAACTTGC — higher, 0.0395
- ACCTCCCA — lower, -0.347
- CCTTATTA — higher, -0.00709
- AAGGCATT — lower, -0.159
- CAGGACTC — lower, -0.114
- AAAGGTGT — higher, -0.056
- ACCCACTC — lower, -0.165
- CCCCAGAG — lower, -0.334
- AATTGACT — higher, 0.101
- ACCAGCCA — lower, -0.169
- ATCGGCCA — higher, 0.125
- CACGTACC — lower, -0.203
- GACGACGC — lower, -0.13
- CGTGTCAC — higher, 0.155
- GACCAATA — lower, -0.101
- AGTGCCAT — lower, -0.233
- CCGCCCTC — higher, -0.0585
- GCACTAGC — lower, -0.127
- CCGTCGGA — higher, 0.148
- CAAGTTTC — higher, 0.088
- ACCATGCT — lower, -0.0829
- CTAGCTGC — lower, -0.261
- GACTGACC — lower, -0.267
- ACCCACAA — higher, 0.098
- AGAGCAGC — lower, -0.232
- TCCATTCA — higher, 0.0982
- CAACTCGG — higher, 0.0948
- ACGGGTAC — lower, -0.121
- CTATTACC — higher, -0.00629
- AAGTAGAG — higher, 0.00608
- GGGCTGAC — lower, -0.0867
- TAAAATGA — higher, 0.171
- CCAGTGGC — lower, -0.176
- AAGGTCGG — higher, -0.018
- AATAAGTG — lower, -0.0698
- AGCTTCTA — lower, -0.0703
- CCCACTAA — higher, -0.0657
- ACACATCT — higher, -0.0415
- AGAAATGA — higher, 0.249
- TACCAGAA — higher, 0.145
- ATGACCCC — lower, -0.164
- CGTTCGAC — lower, -0.144
- ACCGACTC — higher, -0.017
- GCTTTCCC — higher, 0.014
- CTTGTACC — lower, -0.138
- CGGGTGTA — higher, 0.0244
- TACAGCGA — higher, -0.029
- AAATGGCT — lower, -0.0786
- ATTCAATG — higher, 0.0832
- AAGGTTAC — higher, -0.0291
- ACTACTAC — higher, 0.0312
- ATCGTCTC — higher, 0.0156
- TGCATGCA — higher, 0.161
- AGCTCGTA — higher, -0.0314
- CGTGGCAC — higher, 0.0175
- CAGAGTCC — higher, 0.0568
- GAATCCTC — lower, -0.299
- CCCAGCTC — lower, -0.222
- CCCTAGCC — lower, -0.165
- ACGTACAA — higher, 0.103
- CTTTAGGC — lower, -0.122
- GCCCGGCA — higher, 0.271
- CTCAACGA — lower, -0.088
- ATGACGCA — lower, -0.116
- ATGGGAGG — lower, -0.213
- CCTCGTAG — lower, -0.11
- GTACTTGA — lower, -0.116
- CGCGGCAA — higher, 0.274
- ACTACATG — higher, 0.0213
- ATTTCATA — higher, 0.234
- GTCAGGCA — lower, -0.127
- ACAAAGAG — higher, -0.0549
- CAGTCGGC — higher, 0.057
- ATCTACGG — higher, 0.186
- CGGATACG — higher, 0.247
- CCAGCCAA — higher, -0.0674
- AGCTCACT — lower, -0.187
- AGTTCGTG — higher, 0.054
- CGTTGCTA — higher, -0.0272
- CTTAACGA — higher, 0.0703
- CGTGTTGA — higher, 0.166
- AGCTATCG — lower, -0.0905
- AGACATAG — higher, 0.0496
- TCAATGAA — higher, -0.00441
- AGCGGCTA — higher, 0.0888
- ATTGCGCC — higher, 0.0297
- AGGTTAGC — lower, -0.298
- AGAACACA — lower, -0.118
- CGAACATA — higher, 0.0782
- CTATGTGA — lower, -0.116
- CAGTCAAG — lower, -0.0942
- GGATCCCA — lower, -0.0926
- TAGACCAA — higher, 0.08
- GCACCTAC — lower, -0.139
- CAGTGATG — lower, -0.196
- AAAAAATC — higher, 0.208
- GGGGGGAC — lower, -0.445
- CCGCTGAG — higher, 0.111
- ACTTGGAC — higher, 0.0938
- ACCTTCTC — higher, -0.0408
- ACCTGCCG — higher, 0.0235
